Results taken from paper PMC4380498, “Molecular Insights into Frataxin-Mediated Iron Supply for Heme Biosynthesis in Bacillus subtilis” (PLoS ONE, 2015).
These are yes or no findings as the source states them, for the method shown. Sequences can lack the tags named with a protein.

Amino acid sequences for entries named in this document (tags omitted). Residues count along the entry.
UniProt P02769, residues 25-607: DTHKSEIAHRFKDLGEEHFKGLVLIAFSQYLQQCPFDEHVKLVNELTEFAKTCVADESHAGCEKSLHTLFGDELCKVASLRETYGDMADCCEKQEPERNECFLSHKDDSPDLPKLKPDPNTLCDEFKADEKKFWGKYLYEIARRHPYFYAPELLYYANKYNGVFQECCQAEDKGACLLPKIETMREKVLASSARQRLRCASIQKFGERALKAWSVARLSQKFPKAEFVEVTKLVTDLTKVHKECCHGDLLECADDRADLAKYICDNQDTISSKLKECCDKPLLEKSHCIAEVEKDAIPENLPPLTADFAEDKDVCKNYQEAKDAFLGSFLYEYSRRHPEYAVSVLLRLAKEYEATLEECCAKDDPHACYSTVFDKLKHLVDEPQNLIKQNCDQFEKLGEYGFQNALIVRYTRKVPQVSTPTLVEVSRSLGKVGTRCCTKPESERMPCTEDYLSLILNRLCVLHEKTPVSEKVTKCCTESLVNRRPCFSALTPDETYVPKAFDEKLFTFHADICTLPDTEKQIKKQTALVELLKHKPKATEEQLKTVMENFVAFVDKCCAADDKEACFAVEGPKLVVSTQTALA

What was measured:
[1] = molecular target: T1, Bacillus subtilis frataxin homologue Fra, recombinant His6-tagged (Bacillus subtilis 168) (UniProt Q797E6); test: pull-down; 2.5 nmol His6-tagged Fra in HEPES buffer A (50 mM HEPES, 300 mM NaCl, pH 8.0) immobilised on a Ni2+-NTA spin column, treated with 50 μL of 100 μM Strep II-tagged HemH (or BSA as control); elution fractions on SDS-PAGE; both purified
T1 sequence: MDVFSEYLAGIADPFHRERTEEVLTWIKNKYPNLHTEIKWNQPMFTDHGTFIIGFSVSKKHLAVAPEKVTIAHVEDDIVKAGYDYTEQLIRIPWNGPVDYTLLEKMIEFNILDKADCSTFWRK

[2] = molecular target: T1, Bacillus subtilis frataxin homologue Fra, recombinant His6-tagged (Bacillus subtilis 168); test: condition: only with apo-Fra (not iron-charged); HemH titrated from 42.6 μM to 0.01 μM; MST; as the holo-Fra experiment but with labelled apo-Fra (not iron-charged); HemH titrated; 25°C; both purified
[3] = molecular target: Bacillus subtilis nitric oxide synthase bsNos, recombinant His6-tagged (Bacillus subtilis 168) (UniProt O34453); test: condition: only apo-form (without the heme b co-factor); SEC; separation of the apo- and holo-forms of bsNos by size-exclusion chromatography after affinity purification from the crude protein extract; both purified

bovine serum albumin (from UniProt P02769 25-607)
binding [1]: no binding

B1: Bacillus subtilis ferrochelatase HemH, recombinant Strep-tag II variant (enzyme, UniProt P32396 1-310)
chain: MSRKKMGLLVMAYGTPYKEEDIERYYTHIRRGRKPEPEMLQDLKDRYEAIGGISPLAQITEQQAHNLEQHLNEIQDEITFKAYIGLKHIEPFIEDAVAEMHKDGITEAVSIVLAPHFSTFSVQSYNKRAKEEAEKLGGLTITSVESWYDEPKFVTYWVDRVKETYASMPEDERENAMLIVSAHSLPEKIKEFGDPYPDQLHESAKLIAEGAGVSEYAVGWQSEGNTPDPWLGPDVQDLTRDLFEQKGYQAFVYVPVGFVADHLEVLYDNDYECKVVTDDIGASYYRPEMPNAKPEFIDALATVVLKKLGR
binding [2]: no binding

B2: Bacillus subtilis nitric oxide synthase bsNos, recombinant His6-tagged (enzyme, Bacillus subtilis 168, UniProt O34453 1-363, looked up)
chain: MEEKEILWNEAKAFIAACYQELGKEEEVKDRLADIKSEIDLTGSYVHTKEELEHGAKMAWRNSNRCIGRLFWNSLNVIDRRDVRTKEEVRDALFHHIETATNNGKIRPTITIFPPEEKGEKQVEIWNHQLIRYAGYESDGERIGDPASCSLTAACEELGWRGERTDFDLLPLIFRMKGDEQPVWYELPRSLVIEVPITHPDIEAFSDLELKWYGVPIISDMKLEVGGIHYNAAPFNGWYMGTEIGARNLADEKRYDKLKKVASVIGIAADYNTDLWKDQALVELNKAVLHSYKKQGVSIVDHHTAASQFKRFEEQEEEAGRKLTGDWTWLIPPISPAATHIFHRSYDNSIVKPNYFYQDKPYE
notes: nitric oxide synthase bsNos of Bacillus subtilis 168, gene amplified from genomic DNA; The holo-form (with heme b) is called dimeric and the apo-form monomeric; The two were separated by size-exclusion chromatography; also called Nos-His6; holo-bsNos; not shown: His6, N-terminal, kept
binding [3]: no binding
